# In patent publication US20080188494A1 (priority 2005, published 2008):
# Some of these results come from one statement about several compounds together.
# Test system: Phytophthora infestans
# Type: in vivo
# Conditions: 250 ppm, potted tomato plants, infected after three days, assessed after 6 days; untreated plants 90% infected
row,SMILES,"infection of the plants (late blight, determined visually)"
1,"CCc1nc2ncnn2c(N)c1CCc1ccccc1 [I-1, 7-amino-5-ethyl-6-(2-phenylethyl)-(1,2,4)-triazolo-(1,5-a)-pyrimidine]",at most 5%
2,"CCCc1nc2ncnn2c(N)c1CCc1ccccc1 [I-2, 7-amino-6-(2-phenylethyl)-5-propyl-(1,2,4)-triazolo-(1,5-a)-pyrimidine]",at most 5%
